From patent US20240042051A1, “MCL-1 INHIBITOR ANTIBODY-DRUG CONJUGATES AND METHODS OF USE” (Novartis AG, priority 2020, published 2024)
Results are given in words; binding and its absence hold for the method and conditions named. Some results given as binding are weak or reduced against the parent protein; the word gives no strength.

By UniProt entry, the sequences of proteins in these tests, tags left out. Where a name states a change or a piece, a line headed by the entry shows the natural chain unless it says otherwise. Chains listed by the source or under a name are the forms on record and can include a tag or linker.
hCD48EC:mouse-Ig construct #2250 (KKTGNE modified into KKDASG) (P09326, form named): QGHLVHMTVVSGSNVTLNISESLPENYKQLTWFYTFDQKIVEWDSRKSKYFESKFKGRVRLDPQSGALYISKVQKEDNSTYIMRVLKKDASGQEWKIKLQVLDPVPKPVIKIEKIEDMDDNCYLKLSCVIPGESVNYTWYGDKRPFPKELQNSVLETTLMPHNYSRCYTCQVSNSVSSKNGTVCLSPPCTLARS

Legend:
[1] = target: hCD48EC:mouse-Ig construct #2250 (KKTGNE modified into KKDASG) (human) (UniProt P09326); test: ELISA with 1:10 diluted HEK293T supernatant of the mutated CD48-mouse IgG fusion, antibody at 500, 250 and 25 ng/ml
[2] = target: hCD48EC:mouse-Ig construct #2250 (KKTGNE modified into KKDASG) (human) (UniProt P09326); test: ELISA, HEK293T culture supernatant (1:10) with the CD48-mouse Ig construct, antibody at 25, 250 and 500 ng/mL, detection goat anti-mouse IgG (H+L) HRP, Mean OD450-570
[3] = target: Met-humanCD48 (aa29-130)-APP6-Avi-His (human); test: complex formation for crystallisation; structure solved at 2.38 Å

Row | binding [1] | binding [2] | binding [3] | Binder
1 | binds | binds |  | humanized CD48A (antibody, V domains shown) VH: QVQLVQSGSELKKPGASVKVSCKASGYTFTDFGMNWVRQAPGQGLEWMGWINTFTGEPSYGNVFKGRFVFSLDTSVSTAYLQISSLKAEDTAVYYCARRHGNGNVFDSWGQGTLVTVSS VL: EIVLTQSPDFQSVTPKEKVTITCRASQSIGSNIHWYQQKPDQSPKLLIKYTSESISGVPSRFSGSGSGTDFTLTINSLEAEDAATYYCQQSNSWPLTFGGGTKVEIKR
2 |  |  | binds | NY938 (antibody, human IgG1, kappa, V domains shown) VH: QVQLVQSGAEVKKPGASVKVSCKASGYTFTEYTMHWVRQAPGQGLEWMGGINPDTGDTSYNQKFTGRATLTVDKSTSTAYMELSSLRSEDTAVYYCARAQFWTTPRFAYWGQGTLVTVSS VL: DIQMTQSPSSLSASVGDRVTITCKASQDVGTAVAWYQQKPGKVPKLLIYWASTRHTGVPSRFSGSGSGTDFTLTISSLQPEDVATYYCQQYSTYPITFGQGTKLEIKR
